Our source for the binding values is publication PMC8889267.

Amino acid sequences for entries named in this document (tags omitted). Residues count along the entry.
UniProt Q9FIH8, residues 144-1265: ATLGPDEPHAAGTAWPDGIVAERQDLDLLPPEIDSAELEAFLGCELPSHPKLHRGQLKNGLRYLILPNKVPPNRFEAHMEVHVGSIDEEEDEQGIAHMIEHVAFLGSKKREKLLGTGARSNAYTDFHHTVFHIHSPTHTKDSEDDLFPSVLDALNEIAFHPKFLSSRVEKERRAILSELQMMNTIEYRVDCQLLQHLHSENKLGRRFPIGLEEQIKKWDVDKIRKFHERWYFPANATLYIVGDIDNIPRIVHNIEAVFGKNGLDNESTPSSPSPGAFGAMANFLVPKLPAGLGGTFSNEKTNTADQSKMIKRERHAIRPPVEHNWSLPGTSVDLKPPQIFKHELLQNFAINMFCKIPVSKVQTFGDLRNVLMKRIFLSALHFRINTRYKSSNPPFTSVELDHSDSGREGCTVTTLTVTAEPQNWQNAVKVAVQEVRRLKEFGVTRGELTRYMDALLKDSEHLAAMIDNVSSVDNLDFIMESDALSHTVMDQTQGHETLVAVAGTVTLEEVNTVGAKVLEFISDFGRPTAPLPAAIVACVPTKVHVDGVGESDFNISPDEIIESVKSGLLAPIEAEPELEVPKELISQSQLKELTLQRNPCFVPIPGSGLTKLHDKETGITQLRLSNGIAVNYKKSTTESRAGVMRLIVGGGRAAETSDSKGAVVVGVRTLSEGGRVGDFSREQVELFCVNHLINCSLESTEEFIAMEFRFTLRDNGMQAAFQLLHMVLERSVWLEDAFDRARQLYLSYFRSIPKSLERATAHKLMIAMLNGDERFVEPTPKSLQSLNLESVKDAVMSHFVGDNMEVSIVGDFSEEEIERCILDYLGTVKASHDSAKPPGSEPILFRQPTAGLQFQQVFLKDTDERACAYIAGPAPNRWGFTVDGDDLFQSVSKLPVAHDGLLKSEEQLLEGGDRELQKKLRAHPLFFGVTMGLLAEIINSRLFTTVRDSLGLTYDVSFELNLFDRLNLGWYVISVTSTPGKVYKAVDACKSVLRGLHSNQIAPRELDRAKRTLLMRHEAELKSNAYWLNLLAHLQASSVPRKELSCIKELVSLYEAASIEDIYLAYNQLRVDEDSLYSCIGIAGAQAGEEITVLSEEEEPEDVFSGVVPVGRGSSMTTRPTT

This experiment has as its target T1, CLPC1-TRAP-STREPII (Arabidopsis thaliana) (UniProt Q9FI56).
T1 sequence: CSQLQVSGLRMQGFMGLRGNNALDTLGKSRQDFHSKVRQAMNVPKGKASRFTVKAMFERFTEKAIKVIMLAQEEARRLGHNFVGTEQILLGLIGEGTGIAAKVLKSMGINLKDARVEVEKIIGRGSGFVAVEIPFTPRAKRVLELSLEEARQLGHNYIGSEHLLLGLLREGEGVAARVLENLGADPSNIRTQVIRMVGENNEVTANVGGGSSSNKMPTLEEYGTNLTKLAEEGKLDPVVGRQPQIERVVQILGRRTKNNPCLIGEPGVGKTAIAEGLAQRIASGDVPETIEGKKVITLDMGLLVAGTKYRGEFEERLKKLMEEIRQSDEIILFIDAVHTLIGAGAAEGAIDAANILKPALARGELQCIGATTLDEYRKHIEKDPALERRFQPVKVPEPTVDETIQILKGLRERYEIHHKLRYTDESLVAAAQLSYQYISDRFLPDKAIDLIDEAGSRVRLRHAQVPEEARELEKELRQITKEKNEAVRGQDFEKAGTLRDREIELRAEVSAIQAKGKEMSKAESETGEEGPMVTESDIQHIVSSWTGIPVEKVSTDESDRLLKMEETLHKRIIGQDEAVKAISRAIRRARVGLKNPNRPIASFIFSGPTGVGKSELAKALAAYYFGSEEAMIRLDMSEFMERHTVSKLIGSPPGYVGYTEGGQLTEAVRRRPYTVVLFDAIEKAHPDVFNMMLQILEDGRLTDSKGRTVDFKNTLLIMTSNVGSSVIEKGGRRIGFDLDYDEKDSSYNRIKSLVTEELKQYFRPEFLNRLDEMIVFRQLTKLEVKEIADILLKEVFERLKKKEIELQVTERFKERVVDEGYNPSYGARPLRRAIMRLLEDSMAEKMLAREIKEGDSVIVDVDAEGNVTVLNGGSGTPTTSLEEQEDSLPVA
Description: affinity purification with mass spectrometry; STREPII-tagged CLPC1-WT or CLPC1-TRAP from soluble leaf proteome of transgenic Arabidopsis rosettes, nondenaturing; StrepTactinXT beads, 50 mM Hepes-KOH pH 8.0, 15% glycerol, 10 mM MgCl2, 75 mM NaCl, eluted with 2.5 mM biotin; SDS-PAGE, in-gel trypsin digest, LC-MS/MS, spectral counting; three biological replicates; CGEP-STREP eluates as negative control.

No constants are given. Whether binding was seen depends on the method and setting. In cells and extracts the contact can be indirect. These calls come from enrichment with a bait or labelling near it, and not all partners need be listed. A no says only that the protein was not detected with the bait.

On to Executer 2 (EXE2), for which the binding result is “binds”.

For the molecule “pigment defective 327 (PDE327) - oxidoreductase”, the binding result was “binds”.

For the molecule Executer 1 (EXE1), the binding entry was “binds”.

For the molecule “DNA-directed topoisomerase—dually targeted mitochondria & plastid”, the binding result was “binds”.

With “stromal processing peptidase (SPP) (from UniProt Q9FIH8 144-1265)”, the binding entry is reported as “binds”.

On to LON-domain protein 2 (LON-like2), for which the binding entry is reported as “binds”.

For DUF760–2, the binding result is reported as “binds”.

For the molecule DUF760-5 (clade 3), the binding entry is given as “binds”.

Regarding LON-like1, the binding entry was “binds”.

In the case of DUF760-7 (clade 2), the binding entry is recorded as “binds”.

armadillo repeat protein (ARM): the binding entry is recorded as “binds”.

On to DUF760–4, for which the binding entry is “binds”.

Consider HugZ-1, for which the binding entry is listed as “binds”.

As to LON-like3, the binding entry was “binds”.

In the case of SAP domain–containing protein (pTAC3), the binding entry was “binds”.

With “PYRP2-related Haloacid dehalogenase (HAD) hydrolase”, the binding entry is on record as “binds”.

Take DUF179-1: the binding entry is reported as “binds”.

With DUF3143, the binding entry is recorded as “binds weakly”.

As for HugZ-3, the binding result is “binds”.

As to DUF760–1, the binding result is on record as “binds weakly”.

Turning to UVR1, the binding entry was “no binding”.

Regarding DUF760-3 (clade 2), the binding result is given as “binds”.

As to DUF179–3, the binding entry was “binds”.

Turning to “tRNA/rRNA methyltransferase (AT2G39670.1)”, the binding entry is “binds”.

Consider DUF179-2, for which the binding entry is on record as “no binding”.

B1: DNA primase-helicase (dual chloro-mito) (protein, UniProt B5X582 82-709)
chain: SSYNSIPRVPTPVDTEVEADKRVVLSRLVTLRRKLAEQGVDAENCPPGQHSGLICPTCEGGNSGEKSLSLFIAPDGSSATWNCFRGKCGLKGGVRADGGLASADPIEKVERKITVEGIELEPLCDEIQDYFAARAISRKTLERNRVMQKRIGDEIVIAFTYWQRGELVSCKYRSLTKMFFQERKTRRILYGLDDIEKTSEVIIVEGEIDKLAMEEAGFLNCVSVPDGAPAKVSSKEIPSEDKDTKYKFLWNCNDYLKKASRIVIATDGDGPGQAMAEEIARRLGKERCWRVKWPKKSEDEHFKDANEVLMSKGPHLLKEAILDAEPYPILGLFSFKDFFDEIDAYYDRTHGHEYGVSTGWKNLDNLYSVVPGELTVVTGIPNSGKSEWIDAMLCNLNHSVGWKFALCSMENKVRDHARKLLEKHIKKPFFDADYGRSVQRMSVEEKDEGKKWLNDTFYPIRCEMDSLPSIDWVLERAKAAVLRYGIRGLVIDPYNELDHQRTPRQTETEYVSQMLTKIKRFSQHHSCHVWFVAHPKQLQHWDGGAPNLYDISGSAHFINKCDNGIIVHRNRDENAGPLDLVQIGVRKVRNKVAGQIGDAYLCYDRTTGSYSDSPVTPGMPERRSPKRY
As to B1, the binding entry is “binds”.

B2: DEAD/DEAH box helicase (AT3G02060.1) (protein, UniProt F4JFJ3 54-823)
chain: ATAAKPTRWREKPELAESDSISLLNERIRRDLGKRETARPAMDSEEAEKYIHMVKEQQERGLQKLKGIRQGTKAAGDGAFSYKVDPYSLLSGDYVVHKKVGIGRFVGIKFDVPKDSSEPLEYVFIEYADGMAKLPLKQASRLLYRYNLPNETKRPRTLSRLSDTSVWERRKTKGKVAIQKMVVDLMELYLHRLRQKRYPYPKNPIMADFAAQFPYNATPDQKQAFLDVEKDLTERETPMDRLICGDVGFGKTEVALRAIFCVVSTGKQAMVLAPTIVLAKQHYDVISERFSLYPHIKVGLLSRFQTKAEKEEYLEMIKTGHLNIIVGTHSLLGSRVVYSNLGLLVVDEEQRFGVKQKEKIASFKTSVDVLTLSATPIPRTLYLALTGFRDASLISTPPPERIPIKTHLSSFRKEKVIEAIKNELDRGGQVFYVLPRIKGLEEVMDFLEEAFPDIDIAMAHGKQYSKQLEETMERFAQGKIKILICTNIVESGLDIQNANTIIIQDVQQFGLAQLYQLRGRVGRADKEAHAYLFYPDKSLLSDQALERLSALEECRELGQGFQLAEKDMGIRGFGTIFGEQQTGDVGNVGIDLFFEMLFESLSKVEELRIFSVPYDLVKIDININPRLPSEYVNYLENPMEIIHEAEKAAEKDMWSLMQFTENLRRQYGKEPYSMEIILKKLYVRRMAADLGVNRIYASGKMVVMKTNMSKKVFKLITDSMTCDVYRSSLIYEGDQIMAELLLELPREQLLNWMFQCLSELHASLPALIKY
Consider B2, for which the binding result is reported as “binds”.

B3: pentatricopeptide (PPR) repeat (pTAC2) (protein, UniProt Q9S7Q2 67-862)
chain: VEKGKYSYDVESLINKLSSLPPRGSIARCLDIFKNKLSLNDFALVFKEFAGRGDWQRSLRLFKYMQRQIWCKPNEHIYTIMISLLGREGLLDKCLEVFDEMPSQGVSRSVFSYTALINAYGRNGRYETSLELLDRMKNEKISPSILTYNTVINACARGGLDWEGLLGLFAEMRHEGIQPDIVTYNTLLSACAIRGLGDEAEMVFRTMNDGGIVPDLTTYSHLVETFGKLRRLEKVCDLLGEMASGGSLPDITSYNVLLEAYAKSGSIKEAMGVFHQMQAAGCTPNANTYSVLLNLFGQSGRYDDVRQLFLEMKSSNTDPDAATYNILIEVFGEGGYFKEVVTLFHDMVEENIEPDMETYEGIIFACGKGGLHEDARKILQYMTANDIVPSSKAYTGVIEAFGQAALYEEALVAFNTMHEVGSNPSIETFHSLLYSFARGGLVKESEAILSRLVDSGIPRNRDTFNAQIEAYKQGGKFEEAVKTYVDMEKSRCDPDERTLEAVLSVYSFARLVDECREQFEEMKASDILPSIMCYCMMLAVYGKTERWDDVNELLEEMLSNRVSNIHQVIGQMIKGDYDDDSNWQIVEYVLDKLNSEGCGLGIRFYNALLDALWWLGQKERAARVLNEATKRGLFPELFRKNKLVWSVDVHRMSEGGMYTALSVWLNDINDMLLKGDLPQLAVVVSVRGQLEKSSAARESPIAKAAFSFLQDHVSSSFSFTGWNGGRIMCQRSQLKQLLSTKEPTSEESENKNLVALANSPIFAAGTRASTSSDTNHSGNPTQRRTRTKKELAGSTA
B3: the binding result is “binds”.

B4: pentatricopeptide repeat (PPR) protein (6 or 7 repeats) (AT1G02150.1) (protein, UniProt Q8LPS6 1-524)
chain: MLLQAAVQNRNVPLASSASYSRLLRCRSPVVSVAALSKKTAAIVCSISQVYGYGTVDYERRPIVQWNAIYKKISLMEKPELGAASVLNQWEKAGRKLTKWELCRVVKELRKYKRANQALEVYDWMNNRGERFRLSASDAAIQLDLIGKVRGIPDAEEFFLQLPENFKDRRVYGSLLNAYVRAKSREKAEALLNTMRDKGYALHPLPFNVMMTLYMNLREYDKVDAMVFEMKQKDIRLDIYSYNIWLSSCGSLGSVEKMELVYQQMKSDVSIYPNWTTFSTMATMYIKMGETEKAEDALRKVEARITGRNRIPYHYLLSLYGSLGNKKELYRVWHVYKSVVPSIPNLGYHALVSSLVRMGDIEGAEKVYEEWLPVKSSYDPRIPNLLMNAYVKNDQLETAEGLFDHMVEMGGKPSSSTWEILAVGHTRKRCISEALTCLRNAFSAEGSSNWRPKVLMLSGFFKLCEEESDVTSKEAVLELLRQSGDLEDKSYLALIDVDENRTVNNSEIDAHETDALLTQLQDDL
Turning to B4, the binding entry is listed as “binds”.

B5: rpoB RNA polymerase (PEP) beta (protein, UniProt P50546 1-1072)
chain: MLGDEKEGTSAIPGFNQIQFEGFYRFIDQGLIEELAKFPKIEDIDHEIEFQLFVETYQLVEPLIKERDAVYESLTYSSELYVSAGLIWKTSRNMQEQRIFIGNIPLMNSLGTSIVNGIYRIVINQILQSPGIYYQSELDHNGISVYTGTIISDWGGRLELEIDKKARIWARVSRKQKISILVLSSAMGLNLREILENVCYPEIFLSFLTDKEKKKIGSKENAILEFYQQFSCVGGDPIFSESLCKELQKKFFHQRCELGRIGRRNINWRLNLNIPQNNIFLLPRDVLAAADHLIGMKFGMGTLDDMNHLKNKRIRSVADLLQDQLGLALARLENVVKGTISGAIRHKLIPTPQNLVTSTPLTTTYESFFGLHPLSQVLDRTNPLTQIVHGRKLSYLGPGGLTGRTANFRIRDIHPSHYGRICPIDTSEGINVGLIGSLSIHARIGDWGSLESPFYELFEKSKKARIRMLFLSPSQDEYYMIAAGNSLALNRGIQEEQAVPARYRQEFLTIAWEEVHLRSIFPFQYFSIGASLIPFIEHNDANRALMSSNMQRQAVPLSRSEKCIVGTGLERQVALDSGVPAIAEHEGKILYTDTEKIVFSGNGDTLSIPLIMYQRSNKNTCMHQKPQVRRGKCIKKGQILADGAATVGGELALGKNILVAYMPWEGYNFEDAVLISECLVYGDIYTSFHIRKYEIQTHVTTQGPERITKEIPHLEGRLLRNLDKNGIVMLGSWVETGDILVGKLTPQVAKESSYAPEDRLLRAILGIQVSTSKETCLKLPIGGRGRVIDVRWVQKKGGSSYNPEIIRVYISQKREIKVGDKVAGRHGNKGIISKILPRQDMPYLQDGRPVDMVFNPLGVPSRMNVGQIFECSLGLAGSLLDRHYRIAPFDERYEQEASRKLVFSELYEASKQTANPWVFEPEYPGKSRIFDGRTGDPFEQPVIIGKPYILKLIHQVDDKIHGRSSGHYALVTQQPLRGRSKQGGQRVGEMEVWALEGFGVAHILQEMLTYKSDHIRARQEVLGTTIIGGTIPKPEDAPESFRLLVRELRSLALELNHFLVSEKNFQINRKEV
For B5, the binding result is “binds”.
